Measured values reported in patent US20170128366A1, “PHARMACEUTICAL FORMULATIONS OF CHELATING AGENTS AS A METAL REMOVAL TREATMENT SYSTEM” (ZONEONE PHARMA, INC., priority 2013, published 2017).
For at least one compound, name, drawing or mass did not settle the structure.

Assay: Remote loading of DFO into preformed liposomes (loading efficiency, drug to lipid ratio after purification)
Format: physicochemical
[1] = DOPC liposomes, 250 mM ammonium sulfate, pH 8, 45° C. 45 min, input D/L 2000 g/mol
[2] = ammonium sulfate liposome, 20% (v/v) ethanol

## CC(=O)N(O)CCCCCNC(=O)CCC(=O)N(O)CCCCCNC(=O)CCC(=O)N(O)CCCCCN [DFO, Deferoxamine]
[1]
  loading capacity: 337 g/mol
  loading efficiency: 17%
DOPC liposomes, 500 mM ammonium sulfate, pH 8, 45° C. 45 min
  highest loading ratio achieved: 341 g/mol
DOPC liposomes, 500 mM ammonium sulfate, pH 8, 45° C. 45 min, input 50 g/mol DFO to lipid
  loading efficiency: 32%
DOPC liposomes, 500 mM ammonium sulfate, pH 8, 45° C. 45 min, input 100 g/mol
  loading efficiency: 29%
DOPC/Chol (3/0.5), 250 mM ammonium sulfate, 200 g/mol, pH 8, 45° C. 20 min, 2% (v/v) 1-butanol
  loading efficiency: ~65%
HSPC/Cholesterol (3/2), 250 mM ammonium sulfate, 65° C., pH 9, membrane transfer enhancer 1,2-propanediol
  maximum loading efficiency: 15.5%
POPC/Chol (3/0.5), 250 mM ammonium sulfate, 200 g/mol, pH 8, 45° C. 20 min, 15% (v/v) ethanol
  loading efficiency: 55%
[2]
  DFO content of liposome: 174.9 µg/µmol
  available drug internalized: about 53%
